Here are results for three substances from paper PMC10223877 (Pharmaceutics, 2023).

The data set is described as follows: peptide made by a vendor. The conditions noted are these: whole synthesis.

Strings that start with PEPTIDE1 are HELM notation: dots part the residues, brackets hold end groups and non-standard residues. Some results are limits rather than exact numbers.

Regarding “PEPTIDE1{V.R.L.I.V.A.V.R.I.W.R.R.[am]}$$$$V2.0”, the “final HPLC purity” value is given as more than 95% purity. In the case of “PEPTIDE1{[PEG6].V.R.L.I.V.A.V.R.I.W.R.R.[am]}$$$$V2.0”, the “final HPLC purity” value is reported as not below 95% purity. Turning to T(GlcNAc)VRLIVAVRIWRR-NH2, the “final HPLC purity” value (pharmaceutics-15-01391-t001 r5) is reported as more than 92.0% and the “final HPLC purity” value (run 1) is given as not below 95% purity.
